Reference: publication PMC9339186

Target: T1, TRIM18 (endogenous, mouse bone marrow-derived macrophages) (mouse (endogenous in BMDM)) (UniProt O70583)
T1 sequence: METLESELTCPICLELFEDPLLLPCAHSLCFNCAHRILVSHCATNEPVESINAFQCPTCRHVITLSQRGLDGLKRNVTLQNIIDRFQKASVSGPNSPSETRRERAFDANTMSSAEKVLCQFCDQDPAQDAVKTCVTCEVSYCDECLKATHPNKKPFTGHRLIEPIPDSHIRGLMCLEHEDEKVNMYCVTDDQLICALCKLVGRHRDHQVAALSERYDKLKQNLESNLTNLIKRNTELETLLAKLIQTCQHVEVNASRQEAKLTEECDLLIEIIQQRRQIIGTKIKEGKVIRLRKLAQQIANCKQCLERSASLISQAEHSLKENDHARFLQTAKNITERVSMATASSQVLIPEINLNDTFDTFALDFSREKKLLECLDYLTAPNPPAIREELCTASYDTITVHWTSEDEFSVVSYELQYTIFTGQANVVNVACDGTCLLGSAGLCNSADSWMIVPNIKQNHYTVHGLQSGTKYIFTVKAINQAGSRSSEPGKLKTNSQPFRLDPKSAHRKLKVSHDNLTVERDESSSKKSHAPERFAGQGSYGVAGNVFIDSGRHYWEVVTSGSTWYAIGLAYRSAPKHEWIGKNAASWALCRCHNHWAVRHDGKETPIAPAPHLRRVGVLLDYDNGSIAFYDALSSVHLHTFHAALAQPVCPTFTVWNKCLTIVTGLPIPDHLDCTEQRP
Experiment: affinity purification with mass spectrometry; immunoprecipitation with an antibody specific to TRIM18 from lysates of BMDM, protein sequencing by liquid chromatography-mass spectrometry

B1: protein phosphatase, magnesium-dependent 1A (PPM1A; endogenous, mouse bone marrow-derived macrophages) (enzyme, UniProt P49443 1-382)
chain: MGAFLDKPKMEKHNAQGQGNGLRYGLSSMQGWRVEMEDAHTAVIGLPSGLETWSFFAVYDGHAGSQVAKYCCEHLLDHITNNQDFRGSAGAPSVENVKNGIRTGFLEIDEHMRVMSEKKHGADRSGSTAVGVLISPQHTYFINCGDSRGLLCRNRKVHFFTQDHKPSNPLEKERIQNAGGSVMIQRVNGSLAVSRALGDFDYKCVHGKGPTEQLVSPEPEVHDIERSEEDDQFIILACDGIWDVMGNEELCDFVRSRLEVTDDLEKVCNEVVDTCLYKGSRDNMSVILICFPSAPKVSAEAVKKEAELDKYLESRVEEIIKKQVEGVPDLVHVMRTLASENIPSLPPGGELASKRNVIEAVYNRLNPYKNDDTDSASTDDMW
With B1 the binding was “binds”.

These are yes or no findings as the source states them, for the method shown. In cells and extracts the contact can be indirect. Here binding means that the protein was enriched with, or labelled near, the bait; the list need not be complete.
